Results are given in words; binding and its absence hold for the method and conditions named. In cells and extracts the contact can be indirect. For some of these results: A result given as binding can be weak or reduced; the word gives no strength. For some of these results: Tags and fused reporters may be left off the sequences shown.
What was measured:
[1] = molecular target: T1, Myc-tagged Derlin-1 (human (HeLa cDNA)) (UniProt Q9BUN8); test: co-IP; HeLa lines expressing wild-type US11 and FLAG-FcRn (or an FcRn mutant), transfected with Myc-tagged Derlin-1 for 48 h; lysate 0.5 mg; anti-FLAG, anti-Myc or anti-TMEM129 antibody; western blot
T1 sequence: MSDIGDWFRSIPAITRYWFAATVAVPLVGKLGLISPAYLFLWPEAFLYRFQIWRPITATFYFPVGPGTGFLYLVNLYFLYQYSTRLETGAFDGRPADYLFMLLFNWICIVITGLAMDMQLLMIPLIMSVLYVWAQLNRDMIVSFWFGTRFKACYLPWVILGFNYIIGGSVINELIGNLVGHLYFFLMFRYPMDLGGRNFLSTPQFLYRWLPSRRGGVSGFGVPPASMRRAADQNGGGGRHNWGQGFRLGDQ

[2] = molecular target: T2, FLAG-tagged human hemochromatosis protein HFE (human) (UniProt Q30201); test: co-IP; lysates of HeLa transfectants in PBS with 0.5% CHAPS; anti-FLAG, anti-HA or anti-β2m antibody with protein G agarose, 2 h at room temperature; western blot
T2 sequence: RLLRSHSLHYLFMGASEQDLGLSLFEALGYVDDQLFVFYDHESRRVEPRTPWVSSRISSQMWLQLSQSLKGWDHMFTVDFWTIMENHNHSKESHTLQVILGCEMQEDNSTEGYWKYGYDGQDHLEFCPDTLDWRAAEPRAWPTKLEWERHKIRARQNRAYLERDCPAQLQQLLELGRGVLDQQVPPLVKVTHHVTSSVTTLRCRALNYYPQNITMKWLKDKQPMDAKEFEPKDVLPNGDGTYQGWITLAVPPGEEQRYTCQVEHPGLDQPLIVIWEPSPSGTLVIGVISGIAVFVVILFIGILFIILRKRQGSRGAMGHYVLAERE

[3] = molecular target: FLAG-tagged tailless FcRn (FcRn CT−/−) (human); test: co-IP; HeLa lines expressing wild-type US11 and FLAG-FcRn (or an FcRn mutant), transfected with Myc-tagged Derlin-1 for 48 h; lysate 0.5 mg; anti-FLAG, anti-Myc or anti-TMEM129 antibody; western blot
[4] = molecular target: HA-tagged HCMV glycoprotein US11 (HCMV AD169); test: co-IP; lysates of HeLa transfectants in PBS with 0.5% CHAPS; anti-FLAG, anti-HA or anti-β2m antibody with protein G agarose, 2 h at room temperature; western blot

HA-tagged HCMV glycoprotein US11
binding [1]: binds
binding [2]: no binding

B1: endogenous E3 ligase TMEM129 (enzyme, UniProt A0AVI4 1-362)
chain: MDSPEVTFTLAYLVFAVCFVFTPNEFHAAGLTVQNLLSGWLGSEDAAFVPFHLRRTAATLLCHSLLPLGYYVGMCLAASEKRLHALSQAPEAWRLFLLLAVTLPSIACILIYYWSRDRWACHPLARTLALYALPQSGWQAVASSVNTEFRRIDKFATGAPGARVIVTDTWVMKVTTYRVHVAQQQDVHLTVTESRQHELSPDSNLPVQLLTIRVASTNPAVQAFDIWLNSTEYGELCEKLRAPIRRAAHVVIHQSLGDLFLETFASLVEVNPAYSVPSSQELEACIGCMQTRASVKLVKTCQEAATGECQQCYCRPMWCLTCMGKWFASRQDPLRPDTWLASRVPCPTCRARFCILDVCTVR
binding [3]: no binding

B2: FLAG-tagged human hemochromatosis protein HFE (protein, UniProt Q30201 23-348)
chain: T2 sequence
binding [4]: no binding
